PubChem BioAssay AID1259254, NCATS | 2017

Screen: 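Genome-wide screen for genes that prevent DNA re-replication in cancer cells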 (primary screen)
Cell system: human HCT116 colorectal cancer cells
Reagent: single siRNA against human genes
Time to read-out: 3 days
Read-out: 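Nuclei stained with Hoechst and imaged; cell-cycle phase assigned by DNA content; G2 share scaled per plate, non-targeting siRNA 0%, GMNN siRNA 100%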
Direction: G2 robust z-score and G2 cells, % of GMNN control: higher = more G2 cells, more excess DNA replication
Rule for the call: 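Active siRNAs have a G2 robust z of 5 or more median absolute deviations over the median, which in these data means about 38% or higher of GMNN control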
In all, the deposit lists about 59,000 reagents; this is an unselected part. Over the whole deposit, about 1,550 (2.6%) are marked active. 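G2 share is only a proxy for re-replication; each gene was hit by three separate siRNAs, and active genes were retested.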 A number with no mark means an inactive call. The numbers tell different reagents against one gene apart. Further read-outs or replicates are left out here. Reagent sequences are not shown. Not given: the amount of reagent.

gene symbol | reagent no. | G2 robust z-score | G2 cells, % of GMNN control
RNF112 | 1 | -1.37 | -6.65
RNF112 | 2 | 5.54 (active) | 42
RNF112 | 3 | 4.59 | 35.3
IL22 | 1 | 0.0947 | 3.63
IL22 | 2 | -0.841 | -2.95
IL22 | 3 | -1.03 | -4.27
TELO2 | 1 | 3.77 | 29.5
TELO2 | 2 | -1 | -4.09
TELO2 | 3 | 3.64 | 28.6
TNFRSF17 | 1 | 1.14 | 11
TNFRSF17 | 2 | -1.24 | -5.79
TNFRSF17 | 3 | -1.32 | -6.29
DEFB134 | 1 | 6.12 (active) | 46
DEFB134 | 2 | 0.441 | 6.07
DEFB134 | 3 | 0.028 | 3.16
MUL1 | 1 | -0.446 | -0.17
MUL1 | 2 | -0.954 | -3.74
MUL1 | 3 | 0.165 | 4.13

2 of these entries, set out differently.
{"gene symbol":"IL22","reagent no.":2,"G2 robust z-score":-0.841,"G2 cells, % of GMNN control":-2.95}
{"gene symbol":"IL22","reagent no.":3,"G2 robust z-score":-1.03,"G2 cells, % of GMNN control":-4.27}

The results go on.
gene symbol | reagent no. | G2 robust z-score | G2 cells, % of GMNN control
PLD6 | 1 | -0.451 | -0.209
PLD6 | 2 | 0.307 | 5.12
PLD6 | 3 | -0.425 | -0.0196
LOC401220 (retired record) | 1 | -1.36 | -6.62
LOC401220 (retired record) | 2 | 0.797 | 8.58
LOC401220 (retired record) | 3 | -0.737 | -2.22
HNRNPAB | 1 | -0.592 | -1.2
HNRNPAB | 2 | 0.603 | 7.21
HNRNPAB | 3 | -0.0531 | 2.59
PRDM14 | 1 | 0.125 | 3.84
PRDM14 | 2 | 0.61 | 7.26
PRDM14 | 3 | 3.84 | 30
